Measurements as given in publication PMC5428264, “Dentin sialoprotein facilitates dental mesenchymal cell differentiation and dentin formation” (Scientific Reports, 2017).
These are yes or no findings as the source states them, for the method shown. In cells and extracts the contact can be indirect. A result given as binding can be weak or reduced; the word gives no strength. For part of these data: Sequences can lack the tags named with a protein.

Protein sequences, listed by entry. Tags and fused reporters are not part of them.
UniProt Q61146: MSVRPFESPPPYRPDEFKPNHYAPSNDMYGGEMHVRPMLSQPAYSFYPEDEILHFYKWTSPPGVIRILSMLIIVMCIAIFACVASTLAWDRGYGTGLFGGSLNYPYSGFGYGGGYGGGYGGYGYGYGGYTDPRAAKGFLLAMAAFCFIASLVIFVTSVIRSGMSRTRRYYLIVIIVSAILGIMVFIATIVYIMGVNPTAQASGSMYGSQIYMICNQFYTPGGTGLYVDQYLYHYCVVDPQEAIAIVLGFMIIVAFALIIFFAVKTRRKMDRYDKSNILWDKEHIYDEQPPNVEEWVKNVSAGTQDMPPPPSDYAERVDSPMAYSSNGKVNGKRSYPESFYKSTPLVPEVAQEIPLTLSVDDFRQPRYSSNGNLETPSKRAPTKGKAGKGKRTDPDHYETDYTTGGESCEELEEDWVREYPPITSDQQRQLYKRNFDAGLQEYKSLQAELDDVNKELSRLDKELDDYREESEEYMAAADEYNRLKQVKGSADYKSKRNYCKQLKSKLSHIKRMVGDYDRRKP

Key:
Myc-Ocln (mouse) = Myc-Ocln (mouse) (UniProt Q61146); experiment: co-IP; HEK-293 cells transfected with Myc-Ocln and Flag-DSP or Myc-DSP and Flag-Ocln (and fragments), 48 h; lysis in 50 mM Tris-HCl pH 7.4, 150 mM NaCl, 1 mM EDTA, 1% Triton X-100; precipitated with Myc antibody; blots with anti-Myc, anti-DSP or anti-Ocln
Myc-DSP (mouse) = Myc-DSP (mouse) (UniProt P97399); experiment: as above
[1] = biological target: T1, GST-DSP fusion protein (recombinant dentin sialoprotein 1–458) (mouse) (UniProt P97399); experiment: pull-down; GST-DSP fusion protein incubated with 1 ml lysate of mouse odontoblast-like cells (MO-6G3) in 50 mM Tris-HCl pH 7.4, 150 mM NaCl, Triton X100 overnight at 4 °C; glutathione agarose beads; eluted with reduced glutathione; Western blots with antibodies to 110 candidates; only the target purified
T1 sequence: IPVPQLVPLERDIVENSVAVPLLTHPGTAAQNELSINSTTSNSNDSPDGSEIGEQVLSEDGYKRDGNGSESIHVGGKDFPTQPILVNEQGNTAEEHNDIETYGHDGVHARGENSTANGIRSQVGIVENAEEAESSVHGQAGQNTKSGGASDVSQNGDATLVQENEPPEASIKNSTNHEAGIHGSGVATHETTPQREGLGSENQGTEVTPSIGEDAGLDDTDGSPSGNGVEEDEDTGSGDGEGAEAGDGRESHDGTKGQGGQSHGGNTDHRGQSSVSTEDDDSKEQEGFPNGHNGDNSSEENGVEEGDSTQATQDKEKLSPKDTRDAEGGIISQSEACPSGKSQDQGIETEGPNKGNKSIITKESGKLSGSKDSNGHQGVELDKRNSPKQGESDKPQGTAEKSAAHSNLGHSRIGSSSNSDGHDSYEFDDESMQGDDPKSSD

For Flag-DSP (from UniProt P97399), the binding (Myc-Ocln (mouse)) was “binds”.
For “Flag-Ocln (from UniProt Q61146 1-521) (receptor)”, the binding (Myc-DSP (mouse)) was “binds”.
collagen IV was tested, and the binding [1] was “binds”.
